Experimental data as given in the supplement of paper PMC8728848.
This is one part of the list.

Key:
Test in all cases: glycan array binding signal (z-score within array); higher = stronger binding
Conditions in all cases: glycan notation: IUPAC condensed, linker removed
[1] = biological target: Neu5Ac(a2-3)Gal(b1-3)GlcNAc6S
Method in brief: (§1)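 Negative Z-scores can be read as non-binding. The Z-score is calculated within each array and then averaged across arrays of one protein sequence at different concentrations or buffers and across linkers. Arrays, 3228 in all, were curated from the Consortium for Functional Glycomics database and kept only where the protein sequence was available.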

[2] = biological target: Neu5Ac(a2-3)Gal(b1-3)[Fuc(a1-4)]GlcNAc
Method in brief: as §1

[3] = biological target: Neu5Ac(a2-3)Gal(b1-3)[Fuc(a1-4)]GlcNAc(b1-3)Gal(b1-3)[Fuc(a1-4)]GlcNAc
Method in brief: as §1

[4] = biological target: Neu5Ac(a2-3)Gal(b1-3)[Fuc(a1-4)]GlcNAc(b1-3)Gal(b1-4)[Fuc(a1-3)]GlcNAc
Method in brief: as §1

[5] = biological target: Neu5Ac(a2-3)Gal(b1-3)[GlcNAc(b1-6)]GalNAc
Method in brief: as §1

[6] = biological target: Neu5Ac(a2-3)Gal(b1-3)[Neu5Ac(a2-6)]GalNAc
Method in brief: as §1

[7] = biological target: Neu5Ac(a2-3)Gal(b1-3)[Neu5Ac(a2-6)]GlcNAc(b1-3)[Fuc(a1-3)[Gal(b1-4)]GlcNAc(b1-6)]Gal(b1-4)Glc
Method in brief: as §1

[8] = biological target: Neu5Ac(a2-3)Gal(b1-3)]Neu5Ac(a2-3)Gal(b1-4)]GlcNAc
Method in brief: as §1

[9] = biological target: Neu5Ac(a2-3)Gal(b1-4)Glc
Method in brief: as §1

[10] = biological target: Neu5Ac(a2-3)Gal(b1-4)GlcNAc
Method in brief: as §1

[11] = biological target: Neu5Ac(a2-3)Gal(b1-4)GlcNAc(b1-2)Man
Method in brief: as §1

[12] = biological target: Neu5Ac(a2-3)Gal(b1-4)GlcNAc(b1-2)Man(a1-3)[GlcNAc(b1-4)][Neu5Ac(a2-3)Gal(b1-4)GlcNAc(b1-2)Man(a1-6)]Man(b1-4)GlcNAc(b1-4)GlcNAc
Method in brief: as §1

[13] = biological target: Neu5Ac(a2-3)Gal(b1-4)GlcNAc(b1-2)Man(a1-3)[Neu5Ac(a2-3)Gal(b1-4)GlcNAc(b1-2)Man(a1-6)]Man(b1-4)GlcNAc(b1-4)GlcNAc
Method in brief: as §1

[14] = biological target: Neu5Ac(a2-3)Gal(b1-4)GlcNAc(b1-2)Man(a1-3)[Neu5Ac(a2-3)Gal(b1-4)GlcNAc(b1-2)Man(a1-6)]Man(b1-4)GlcNAc(b1-4)[Fuc(a1-6)]GlcNAc
Method in brief: as §1

[15] = biological target: Neu5Ac(a2-3)Gal(b1-4)GlcNAc(b1-2)Man(a1-3)[Neu5Ac(a2-6)Gal(b1-4)GlcNAc(b1-2)Man(a1-6)]Man(b1-4)GlcNAc(b1-4)GlcNAc
Method in brief: as §1

[16] = biological target: Neu5Ac(a2-3)Gal(b1-4)GlcNAc(b1-2)[Neu5Ac(a2-3)Gal(b1-4)GlcNAc(b1-4)]Man(a1-3)[GlcNAc(b1-4)][Neu5Ac(a2-3)Gal(b1-4)GlcNAc(b1-2)[Neu5Ac(a2-3)Gal(b1-4)GlcNAc(b1-6)]Man(a1-6)]Man(b1-4)GlcNAc(b1-4)GlcNAc
Method in brief: as §1

[17] = biological target: Neu5Ac(a2-3)Gal(b1-4)GlcNAc(b1-2)[Neu5Ac(a2-3)Gal(b1-4)GlcNAc(b1-4)]Man(a1-3)[GlcNAc(b1-4)][Neu5Ac(a2-3)Gal(b1-4)GlcNAc(b1-4)Man(a1-6)]Man(b1-4)GlcNAc(b1-4)GlcNAc
Method in brief: as §1

[18] = biological target: Neu5Ac(a2-3)Gal(b1-4)GlcNAc(b1-2)[Neu5Ac(a2-3)Gal(b1-4)GlcNAc(b1-6)]Man(a1-6)[Neu5Ac(a2-3)Gal(b1-4)GlcNAc(b1-2)Man(a1-3)]Man(b1-4)GlcNAc(b1-4)GlcNAc
Method in brief: as §1

[19] = biological target: Neu5Ac(a2-3)Gal(b1-4)GlcNAc(b1-2)[Neu5Ac(a2-3)Gal(b1-4)GlcNAc(b1-6)]Man(a1-6)[Neu5Ac(a2-3)Gal(b1-4)GlcNAc(b1-2)Man(a1-3)][GlcNAc(b1-4)]Man(b1-4)GlcNAc(b1-4)GlcNAc
Method in brief: as §1

[20] = biological target: Neu5Ac(a2-3)Gal(b1-4)GlcNAc(b1-3)Gal
Method in brief: as §1

[21] = biological target: Neu5Ac(a2-3)Gal(b1-4)GlcNAc(b1-3)Gal(b1-3)GlcNAc
Method in brief: as §1

[22] = biological target: Neu5Ac(a2-3)Gal(b1-4)GlcNAc(b1-3)Gal(b1-4)GlcNAc
Method in brief: as §1

[23] = biological target: Neu5Ac(a2-3)Gal(b1-4)GlcNAc(b1-3)Gal(b1-4)GlcNAc(b1-2)Man(a1-3)[Neu5Ac(a2-3)Gal(b1-4)GlcNAc(b1-3)Gal(b1-4)GlcNAc(b1-2)Man(a1-6)]Man(b1-4)GlcNAc(b1-4)GlcNAc
Method in brief: as §1

[24] = biological target: Neu5Ac(a2-3)Gal(b1-4)GlcNAc(b1-3)Gal(b1-4)GlcNAc(b1-3)Gal(b1-4)GlcNAc
Method in brief: as §1

[25] = biological target: Neu5Ac(a2-3)Gal(b1-4)GlcNAc(b1-3)Gal(b1-4)GlcNAc(b1-3)Gal(b1-4)GlcNAc(b1-2)Man(a1-3)[Neu5Ac(a2-3)Gal(b1-4)GlcNAc(b1-3)Gal(b1-4)GlcNAc(b1-3)Gal(b1-4)GlcNAc(b1-2)Man(a1-6)]GalNAc
Method in brief: as §1

[26] = biological target: Neu5Ac(a2-3)Gal(b1-4)GlcNAc(b1-3)Gal(b1-4)GlcNAc(b1-3)GalNAc
Method in brief: as §1

[27] = biological target: Neu5Ac(a2-3)Gal(b1-4)GlcNAc(b1-3)Gal(b1-4)GlcNAc(b1-3)[Neu5Ac(a2-3)Gal(b1-4)GlcNAc(b1-3)Gal(b1-4)GlcNAc(b1-6)]GalNAc
Method in brief: as §1

[28] = biological target: Neu5Ac(a2-3)Gal(b1-4)GlcNAc(b1-3)Gal(b1-4)GlcNAc(b1-6)[Gal(b1-3)]GalNAc
Method in brief: as §1

[29] = biological target: Neu5Ac(a2-3)Gal(b1-4)GlcNAc(b1-3)Gal(b1-4)[Fuc(a1-3)]GlcNAc
Method in brief: as §1

[30] = biological target: Neu5Ac(a2-3)Gal(b1-4)GlcNAc(b1-3)GalNAc
Method in brief: as §1

[31] = biological target: Neu5Ac(a2-3)Gal(b1-4)GlcNAc(b1-3)[Neu5Ac(a2-3)Gal(b1-4)GlcNAc(b1-6)]GalNAc
Method in brief: as §1

[32] = biological target: Neu5Ac(a2-3)Gal(b1-4)GlcNAc(b1-6)GalNAc
Method in brief: as §1

[33] = biological target: Neu5Ac(a2-3)Gal(b1-4)GlcNAc(b1-6)[Gal(b1-3)]GalNAc
Method in brief: as §1

[34] = biological target: Neu5Ac(a2-3)Gal(b1-4)GlcNAc(b1-6)[Neu5Ac(a2-3)Gal(b1-3)]GalNAc
Method in brief: as §1

[35] = biological target: Neu5Ac(a2-3)Gal(b1-4)GlcNAc6S
Method in brief: as §1

[36] = biological target: Neu5Ac(a2-3)Gal(b1-4)[Fuc(a1-3)]GlcNAc
Method in brief: as §1

[37] = biological target: Neu5Ac(a2-3)Gal(b1-4)[Fuc(a1-3)]GlcNAc(b1-2)Man
Method in brief: as §1

[38] = biological target: Neu5Ac(a2-3)Gal(b1-4)[Fuc(a1-3)]GlcNAc(b1-3)Gal
Method in brief: as §1

[39] = biological target: Neu5Ac(a2-3)Gal(b1-4)[Fuc(a1-3)]GlcNAc(b1-3)Gal(b1-4)GlcNAc
Method in brief: as §1

[40] = biological target: Neu5Ac(a2-3)Gal(b1-4)[Fuc(a1-3)]GlcNAc(b1-3)Gal(b1-4)[Fuc(a1-3)]GlcNAc(b1-3)Gal(b1-4)[Fuc(a1-3)]GlcNAc
Method in brief: as §1

[41] = biological target: Neu5Ac(a2-3)Gal(b1-4)[Fuc(a1-3)]GlcNAc(b1-3)GalNAc
Method in brief: as §1

[42] = biological target: Neu5Ac(a2-3)Gal(b1-4)[Fuc(a1-3)]GlcNAc(b1-6)[Gal(b1-3)]GalNAc
Method in brief: as §1

[43] = biological target: Neu5Ac(a2-3)Gal(b1-4)[Fuc(a1-3)]GlcNAc(b1-6)[Neu5Ac(a2-3)Gal(b1-3)]GalNAc
Method in brief: as §1

[44] = biological target: Neu5Ac(a2-3)Gal(b1-4)[Fuc(a1-3)]GlcNAc6S
Method in brief: as §1

[45] = biological target: Neu5Ac(a2-3)Gal6S(b1-4)GlcNAc
Method in brief: as §1

B1: DC-Sign-R (Homo sapiens), Q9H2X3 (protein)
chain: MSDSKEPRVQQLGLLEEDPTTSGIRLFPRDFQFQQIHGHKSSTGCLGHGALVLQLLSFMLLAGVLVAILVQVSKVPSSLSQEQSEQDAIYQNLTQLKAAVGELSEKSKLQEIYQELTQLKAAVGELPEKSKLQEIYQELTRLKAAVGELPEKSKLQEIYQELTRLKAAVGELPEKSKLQEIYQELTRLKAAVGELPEKSKLQEIYQELTELKAAVGELPEKSKLQEIYQELTQLKAAVGELPDQSKQQQIYQELTDLKTAFERLCRHCPKDWTFFQGNCYFMSNSQRNWHDSVTACQEVRAQLVVIKTAEEQNFLQLQTSRSNRFSWMGLSDLNQEGTWQWVDGSPLSPSFQRYWNSGEPNNSGNEDCAEFSGSGWNDNRCDVDNYWICKKPAACFRDE
[1]
  glycan array binding signal (z-score): -0.544
[2]
  glycan array binding signal (z-score): -0.063
[3]
  glycan array binding signal (z-score): -0.121
[4]
  glycan array binding signal (z-score): -0.503
[5]
  glycan array binding signal (z-score): 2.7
[6]
  glycan array binding signal (z-score): -0.105
[7]
  glycan array binding signal (z-score): -0.178
[8]
  glycan array binding signal (z-score): -0.405
[9]
  glycan array binding signal (z-score): -0.705
[10]
  glycan array binding signal (z-score): -0.569
[11]
  glycan array binding signal (z-score): -0.09
[12]
  glycan array binding signal (z-score): -0.036
[13]
  glycan array binding signal (z-score): -0.881
[14]
  glycan array binding signal (z-score): -0.313
[15]
  glycan array binding signal (z-score): -0.873
[16]
  glycan array binding signal (z-score): 2.27
[17]
  glycan array binding signal (z-score): 1.59
[18]
  glycan array binding signal (z-score): 1.06
[19]
  glycan array binding signal (z-score): -0.749
[20]
  glycan array binding signal (z-score): -0.358
[21]
  glycan array binding signal (z-score): -0.629
[22]
  glycan array binding signal (z-score): -0.517
[23]
  glycan array binding signal (z-score): 1.11
[24]
  glycan array binding signal (z-score): -0.733
[25]
  glycan array binding signal (z-score): 0.027
[26]
  glycan array binding signal (z-score): 2.49
[27]
  glycan array binding signal (z-score): 1.82
[28]
  glycan array binding signal (z-score): -0.037
[29]
  glycan array binding signal (z-score): -0.066
[30]
  glycan array binding signal (z-score): 1.54
[31]
  glycan array binding signal (z-score): 0.332
[32]
  glycan array binding signal (z-score): -0.293
[33]
  glycan array binding signal (z-score): -0.73
[34]
  glycan array binding signal (z-score): 0.509
[35]
  glycan array binding signal (z-score): -0.795
[36]
  glycan array binding signal (z-score): -0.357
[37]
  glycan array binding signal (z-score): 0.991
[38]
  glycan array binding signal (z-score): 1.15
[39]
  glycan array binding signal (z-score): -0.749
[40]
  glycan array binding signal (z-score): -0.219
[41]
  glycan array binding signal (z-score): 1.33
[42]
  glycan array binding signal (z-score): -0.608
[43]
  glycan array binding signal (z-score): 0.361
[44]
  glycan array binding signal (z-score): -0.531
[45]
  glycan array binding signal (z-score): -0.255
